No constants are given. Whether binding was seen depends on the method and setting. Binding can be weak; no strength is given.
B1: CR4353 (antibody, V domains shown)
VH: QVQLVESGGGVVQPGRSLRLSCAASGFTFSNYAMHWVRQAPGKGLEWVAVISYDGGNKYYADSVKGRFTMSRDNSKNTLYLQMNSLRAEDTAVYYCARDFWSGYSMVDSYYYYMDVWGQGTTVTVSS
VL: ETTLTQSPGTLSLSPGERATLSCRASQSVSNTFLAWYQQKPGQAPRLLIYGASSRATGIPDRFSGSGSGTDFTLTISRLEPEDFAAYYCQQYGSSLTFGPGTKVDIKR
B2: CR4361 (antibody, V domains shown)
VH: EVQLVQSGAEVKKPGESLKISCKASGFSFSTYWIGWVRQMPGKGLEWMGIIYPADSDTRYSPSFQGQVTISADKSISTAYLQWSSLKASDTAMYYCARLRGPYYDFWNGYRETHDAFNVWGQGTMVTVSS
VL: DVVMTQSPDSLAVSLGERATINCKSSQNILDNSDNKNFLAWYQQKPGQPPKLLIYWASARESGVPDRFSGSGSGTDFTLTISSLQAEDVALYYCQQYYNTPITFGQGTRLEIKR

Molecular target: WNV E protein of the inactivated WNV preparation (West Nile virus)
Assay: Western blot or immunoprecipitation

| Binder | binding |
| --- | --- |
| B1 | binds |
| B2 | binds |
